Laboratory results from PMC12617525.
These are yes or no findings as the source states them, for the method shown. In cells and extracts the contact can be indirect. Some entries that bind do so weakly or less than the wild type.

Chains of the proteins cited; added tags and fusions are not shown. Residues count along the entry.
UniProt Q8R493, residues 21-495: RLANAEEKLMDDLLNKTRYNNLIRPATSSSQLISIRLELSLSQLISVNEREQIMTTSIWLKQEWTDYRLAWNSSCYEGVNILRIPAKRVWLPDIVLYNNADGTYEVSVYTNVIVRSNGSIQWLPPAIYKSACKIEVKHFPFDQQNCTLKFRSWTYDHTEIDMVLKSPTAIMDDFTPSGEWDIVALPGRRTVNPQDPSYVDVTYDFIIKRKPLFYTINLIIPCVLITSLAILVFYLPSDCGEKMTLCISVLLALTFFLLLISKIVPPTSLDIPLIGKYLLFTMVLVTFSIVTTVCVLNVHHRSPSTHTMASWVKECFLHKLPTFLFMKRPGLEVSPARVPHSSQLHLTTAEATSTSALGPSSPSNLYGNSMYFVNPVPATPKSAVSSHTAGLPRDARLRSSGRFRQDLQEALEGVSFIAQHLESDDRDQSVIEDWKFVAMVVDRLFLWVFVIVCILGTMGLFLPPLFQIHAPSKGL

Target: T1, DJ-1 (Park7) (mouse (endogenous in mouse brain)) (UniProt Q99LX0)
T1 sequence: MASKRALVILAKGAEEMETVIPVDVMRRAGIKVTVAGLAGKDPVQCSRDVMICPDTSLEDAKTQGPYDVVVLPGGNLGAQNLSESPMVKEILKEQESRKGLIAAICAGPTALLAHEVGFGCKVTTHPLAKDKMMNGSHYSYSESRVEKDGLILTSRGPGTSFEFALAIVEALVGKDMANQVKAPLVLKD
Assay: co-IP; 500 ug mitochondrial lysate of mouse brain (WT, CHCHD2 T61I and CHCHD2 KO mice) in 1 ml RIPA buffer (150 mM NaCl, 50 mM tris-HCl pH 7.5, 0.1% SDS, 1% Na deoxycholate, 1% NP-40, 1 mM EDTA) with 3 ul antibody, 4°C; uMACS Protein A or G microbeads; eluates analysed by immunoblotting

- binding: binds
Substance: Chrnb4 (from UniProt Q8R493 21-495)
